Measurements reported in PubChem BioAssay AID1224826 (NIAID, 2016).

- Purpose: 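Knock-downs that raise or lower Tnf reporter signal after endotoxin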 (primary screen)
- Cell system: RAW264.7 G9 macrophages from mouse bearing reporters for p65 (GFP) and the Tnf promoter (mCherry)
- Knock-down reagent: siRNA pool against mouse genes, 100 nM
- Time to read-out: 16 h of LPS stimulation, after 2 days of siRNA transfection
- Conditions: bacterial lipopolysaccharide (Salmonella minnesota R595), 10 ng/ml
- Read-out: 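Imaged Tnf reporter mCherry in nuclei, minus background, normalised per plate to the median and expressed as robust z-scores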
- Scale: Tnf reporter robust z-score: higher = stronger Tnf promoter reporter signal after LPS
- Active means: 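a well counts as active at a score of -1.3 or below (Tlr4 knock-down control median) or above 3 (raised signal); controls and wells holding fewer than 50 cells are excluded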
- Calls: active = Tnf reporter clearly lowered or raised; inactive = no clear change in Tnf reporter
The deposit covers about 17,000 reagents; below is a part drawn at random. About 1,110 of them (6.6%) were called active. 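Active means lowered or raised reporter signal; replicate intensities are raw and not normalised per plate.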 Not all columns of the deposit are shown.

Wdr5b (WD repeat domain 5B): Tnf reporter robust z-score = 0.92; fewer than 50 cells in well = enough cells in well; activity call = inactive
Aard (alanine and arginine rich domain containing protein): Tnf reporter robust z-score = -0.57; fewer than 50 cells in well = enough cells in well; activity call = inactive
Ckm (creatine kinase, muscle): Tnf reporter robust z-score = -0.14; fewer than 50 cells in well = enough cells in well; activity call = inactive
Nxf2 (nuclear RNA export factor 2): Tnf reporter robust z-score = -1.26; fewer than 50 cells in well = enough cells in well; activity call = inactive
Panx1 (pannexin 1): Tnf reporter robust z-score = -0.28; fewer than 50 cells in well = enough cells in well; activity call = inactive
Rtraf (RNA transcription, translation and transport factor): Tnf reporter robust z-score = -0.92; fewer than 50 cells in well = enough cells in well; activity call = inactive
Or51d1 (olfactory receptor family 51 subfamily D member 1): Tnf reporter robust z-score = 0.71; fewer than 50 cells in well = enough cells in well; activity call = inactive
Frey1 (Frey regulator of sperm-oocyte fusion 1): Tnf reporter robust z-score = 7.1; fewer than 50 cells in well = enough cells in well; activity call = active
Sox17 (SRY (sex determining region Y)-box 17): Tnf reporter robust z-score = 3.33; fewer than 50 cells in well = enough cells in well; activity call = active
Xirp1 (xin actin-binding repeat containing 1): Tnf reporter robust z-score = -1.8; fewer than 50 cells in well = enough cells in well; activity call = active
Tgfb1i1 (transforming growth factor beta 1 induced transcript 1): Tnf reporter robust z-score = -0.27; fewer than 50 cells in well = enough cells in well; activity call = inactive
Krt13 (keratin 13): Tnf reporter robust z-score = -0.68; fewer than 50 cells in well = enough cells in well; activity call = inactive
